The values below come from paper PMC5811984.

Sequences of proteins named here, by UniProt entry; tags and fusion partners are left off.
UniProt P61006: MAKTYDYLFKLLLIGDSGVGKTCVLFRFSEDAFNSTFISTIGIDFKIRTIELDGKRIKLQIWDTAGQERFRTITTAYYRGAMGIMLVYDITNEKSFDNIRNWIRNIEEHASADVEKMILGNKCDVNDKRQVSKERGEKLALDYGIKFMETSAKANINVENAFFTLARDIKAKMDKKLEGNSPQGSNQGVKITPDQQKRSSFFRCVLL
UniProt P62820: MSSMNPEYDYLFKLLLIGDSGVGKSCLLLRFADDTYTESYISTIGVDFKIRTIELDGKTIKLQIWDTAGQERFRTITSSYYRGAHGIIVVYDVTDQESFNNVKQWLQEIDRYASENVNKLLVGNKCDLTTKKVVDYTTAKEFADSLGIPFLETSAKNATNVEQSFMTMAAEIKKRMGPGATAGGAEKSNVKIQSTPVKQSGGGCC
UniProt Q15286: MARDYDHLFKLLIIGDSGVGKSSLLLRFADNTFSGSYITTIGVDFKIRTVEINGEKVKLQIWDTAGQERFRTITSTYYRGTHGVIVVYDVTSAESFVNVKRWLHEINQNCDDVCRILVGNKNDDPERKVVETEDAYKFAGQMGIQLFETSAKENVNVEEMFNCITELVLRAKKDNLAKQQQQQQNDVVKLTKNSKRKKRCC
UniProt Q5S007: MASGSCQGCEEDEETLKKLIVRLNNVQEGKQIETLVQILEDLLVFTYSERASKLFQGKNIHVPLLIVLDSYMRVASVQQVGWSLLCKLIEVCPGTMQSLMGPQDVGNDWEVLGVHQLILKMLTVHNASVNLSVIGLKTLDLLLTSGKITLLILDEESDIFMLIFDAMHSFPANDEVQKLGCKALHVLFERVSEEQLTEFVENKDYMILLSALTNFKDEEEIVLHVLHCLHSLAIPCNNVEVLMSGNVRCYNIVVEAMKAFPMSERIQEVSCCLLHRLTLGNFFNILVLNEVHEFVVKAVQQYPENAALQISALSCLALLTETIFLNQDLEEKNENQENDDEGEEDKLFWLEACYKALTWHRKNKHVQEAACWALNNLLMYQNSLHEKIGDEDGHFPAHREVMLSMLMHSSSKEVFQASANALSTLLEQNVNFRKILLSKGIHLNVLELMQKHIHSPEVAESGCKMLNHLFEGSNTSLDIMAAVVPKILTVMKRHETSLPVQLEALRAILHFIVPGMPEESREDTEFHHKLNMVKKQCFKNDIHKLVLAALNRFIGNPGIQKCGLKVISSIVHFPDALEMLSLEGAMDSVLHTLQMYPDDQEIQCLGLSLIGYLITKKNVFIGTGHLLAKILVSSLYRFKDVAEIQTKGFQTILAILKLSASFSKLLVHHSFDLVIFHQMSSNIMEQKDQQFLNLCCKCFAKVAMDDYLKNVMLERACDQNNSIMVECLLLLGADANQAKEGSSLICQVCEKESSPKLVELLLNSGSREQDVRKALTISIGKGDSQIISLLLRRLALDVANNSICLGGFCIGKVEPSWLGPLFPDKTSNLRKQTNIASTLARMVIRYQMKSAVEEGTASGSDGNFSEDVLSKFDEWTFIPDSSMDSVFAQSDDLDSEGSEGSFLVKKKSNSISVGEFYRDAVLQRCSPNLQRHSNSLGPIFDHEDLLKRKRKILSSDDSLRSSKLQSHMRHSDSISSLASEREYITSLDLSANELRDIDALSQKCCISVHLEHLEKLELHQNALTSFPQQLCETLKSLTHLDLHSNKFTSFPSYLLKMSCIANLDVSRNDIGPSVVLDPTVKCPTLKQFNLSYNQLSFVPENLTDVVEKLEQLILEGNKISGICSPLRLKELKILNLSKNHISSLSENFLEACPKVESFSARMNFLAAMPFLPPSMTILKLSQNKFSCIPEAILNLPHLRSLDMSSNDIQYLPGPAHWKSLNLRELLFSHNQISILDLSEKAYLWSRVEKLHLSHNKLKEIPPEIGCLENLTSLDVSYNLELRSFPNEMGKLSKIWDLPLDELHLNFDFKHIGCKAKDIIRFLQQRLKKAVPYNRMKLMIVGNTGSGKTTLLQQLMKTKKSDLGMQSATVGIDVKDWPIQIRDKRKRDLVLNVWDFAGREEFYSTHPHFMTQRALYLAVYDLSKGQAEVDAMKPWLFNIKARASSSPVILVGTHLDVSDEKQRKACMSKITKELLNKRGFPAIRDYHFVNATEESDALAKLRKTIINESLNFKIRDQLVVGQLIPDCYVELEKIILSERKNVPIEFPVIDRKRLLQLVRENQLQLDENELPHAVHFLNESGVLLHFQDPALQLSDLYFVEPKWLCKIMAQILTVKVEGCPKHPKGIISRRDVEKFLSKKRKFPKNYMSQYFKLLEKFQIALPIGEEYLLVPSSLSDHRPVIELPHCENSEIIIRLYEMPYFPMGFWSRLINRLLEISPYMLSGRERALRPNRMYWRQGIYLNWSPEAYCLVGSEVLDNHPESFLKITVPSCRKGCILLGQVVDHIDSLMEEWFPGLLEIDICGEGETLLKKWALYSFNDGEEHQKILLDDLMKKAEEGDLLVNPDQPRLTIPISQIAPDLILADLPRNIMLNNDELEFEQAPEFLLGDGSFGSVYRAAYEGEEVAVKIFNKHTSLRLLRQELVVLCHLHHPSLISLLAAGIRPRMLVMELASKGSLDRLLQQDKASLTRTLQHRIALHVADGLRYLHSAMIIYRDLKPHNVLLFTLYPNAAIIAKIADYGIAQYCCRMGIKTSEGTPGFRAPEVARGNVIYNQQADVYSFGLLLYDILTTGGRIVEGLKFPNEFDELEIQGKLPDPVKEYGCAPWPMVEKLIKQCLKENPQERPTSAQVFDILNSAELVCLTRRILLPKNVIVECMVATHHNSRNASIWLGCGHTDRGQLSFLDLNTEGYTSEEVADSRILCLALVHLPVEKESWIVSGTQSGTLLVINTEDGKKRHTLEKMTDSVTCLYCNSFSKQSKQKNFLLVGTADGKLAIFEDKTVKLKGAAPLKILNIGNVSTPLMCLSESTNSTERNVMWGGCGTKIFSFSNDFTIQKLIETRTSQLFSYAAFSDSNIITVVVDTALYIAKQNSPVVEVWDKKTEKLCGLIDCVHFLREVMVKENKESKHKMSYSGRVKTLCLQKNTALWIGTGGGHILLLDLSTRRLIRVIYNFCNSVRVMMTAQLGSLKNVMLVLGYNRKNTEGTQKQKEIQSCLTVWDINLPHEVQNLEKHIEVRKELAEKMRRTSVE

The target of one assay is V5-tagged Rab8a (human) (UniProt P61006). In words: co-IP; reciprocal: HEK-293 co-transfected with myc-LRRK2 and V5-Rab; lysate (50 mM Tris-HCl pH 7.5, 0.5% TX-100, 150 mM NaCl, 0.5 mM EGTA) immunoprecipitated with anti-V5 on protein-G-agarose overnight at 4°C; blotted with anti-myc.
In the next assay the target is V5-tagged Rab1a (human) (UniProt P62820). The description is as above.
A further assay concerns the target T1, V5-tagged Rab3c (human) (UniProt Q96E17).
T1 sequence: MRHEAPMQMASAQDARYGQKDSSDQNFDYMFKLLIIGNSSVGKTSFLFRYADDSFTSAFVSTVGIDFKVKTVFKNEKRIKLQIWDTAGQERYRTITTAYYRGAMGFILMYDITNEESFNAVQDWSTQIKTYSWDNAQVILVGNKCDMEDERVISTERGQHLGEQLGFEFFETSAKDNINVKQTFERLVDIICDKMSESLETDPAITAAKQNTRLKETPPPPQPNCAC
The assay is described as above.

A further assay deals with V5-tagged Rab35 (human) (UniProt Q15286). Described as above.
The target of assay [1] is Myc-tagged LRRK2 (leucine-rich repeat kinase 2), wild-type (UniProt Q5S007). The assay is described as follows: co-IP; HEK-293 co-transfected with myc-LRRK2 and V5-Rab; lysate (50 mM Tris-HCl pH 7.5, 0.5% TX-100, 150 mM NaCl, 0.5 mM EGTA) immunoprecipitated with anti-myc on protein-G-agarose overnight at 4°C; blotted with anti-V5.

These are yes or no findings as the source states them, for the method shown. In cells and extracts the contact can be indirect. Some binding calls cover weakened binding; strength is not graded here. For some of these results: Sequences can lack the tags named with a protein.

With “Myc-tagged LRRK2 (leucine-rich repeat kinase 2), wild-type (from UniProt Q5S007 1-2527) (enzyme)”, the binding result with V5-tagged Rab8a (human), with V5-tagged Rab1a (human), with V5-tagged Rab3c (human) and in the assay with V5-tagged Rab35 (human) was “binds” in each case.
Consider “V5-tagged Rab1a (from UniProt P62820 1-205)”, for which the binding entry in assay [1] is given as “binds”.
Regarding “V5-tagged Rab8a (from UniProt P61006 1-207)”, in assay [1], the binding entry is given as “binds”.
Take “V5-tagged Rab35 (from UniProt Q15286 1-201)”: the binding result in assay [1] is “binds”.
